Test results: article PMC2686699, “The interaction between the measles virus nucleoprotein and the Interferon Regulator Factor 3 relies on a specific cellular environment” (Virology Journal, 2009)
These are yes or no findings as the source states them, for the method shown. Tags and fused reporters may be left off the sequences shown.

Chains of the proteins cited; added tags and fusions are not shown. Residues count along the entry.
UniProt P03422, residues 231-507: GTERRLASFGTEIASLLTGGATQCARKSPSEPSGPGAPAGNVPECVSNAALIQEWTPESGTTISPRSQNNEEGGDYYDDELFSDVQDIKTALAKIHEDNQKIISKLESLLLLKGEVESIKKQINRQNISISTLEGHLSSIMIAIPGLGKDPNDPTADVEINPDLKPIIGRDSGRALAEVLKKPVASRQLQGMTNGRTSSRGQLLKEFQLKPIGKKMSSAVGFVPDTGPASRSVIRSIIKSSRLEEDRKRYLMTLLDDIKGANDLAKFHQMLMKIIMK

Target: BD-N_TAILΔ2,3 (N 401-488, two-hybrid bait) (measles virus) (UniProt P04851)
Experiment: two-hybrid; Lex-A two hybrid assay in yeast by mating (MB226α baits, MB210a preys); growth and β-galactosidase on galactose/raffinose -His-Ura-Trp + X-Gal; repeated two times

Molecule: AD-PCT (P 231-507, two-hybrid prey) (from UniProt P03422 231-507) (domain or fragment)
- binding: no binding

B1: AD-IRF3 (full length IRF-3, two-hybrid prey) (protein, UniProt Q14653 1-427)
chain: MGTPKPRILPWLVSQLDLGQLEGVAWVNKSRTRFRIPWKHGLRQDAQQEDFGIFQAWAEATGAYVPGRDKPDLPTWKRNFRSALNRKEGLRLAEDRSKDPHDPHKIYEFVNSGVGDFSQPDTSPDTNGGGSTSDTQEDILDELLGNMVLAPLPDPGPPSLAVAPEPCPQPLRSPSLDNPTPFPNLGPSENPLKRLLVPGEEWEFEVTAFYRGRQVFQQTISCPEGLRLVGSEVGDRTLPGWPVTLPDPGMSLTDRGVMSYVRHVLSCLGGGLALWRAGQWLWAQRLGHCHTYWAVSEELLPNSGHGPDGEVPKDKEGGVFDLGPFIVDLITFTEGSGRSPRYALWFCVGESWPQDQPWTKRLVMVKVVPTCLRALVEMARVGGASSLENTVDLHISNSHPLSLTSDQYKAYLQDLVEGMDFQGPGES
- binding: no binding
